Data on one molecule can be found in PubChem BioAssay AID687020 (Broad Institute, 2013).

The list shows a part of the results, in another mix than the full data. Results with a measured potency or affinity are listed apart. The source made the active and inactive calls. How the calls were made is not given here.

The nature of the test: Vero cell toxicity, dose response, cytotoxicity control, plate reader, cherry-pick samples (AID 687020).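 Further: compounds incubated with cells for three days before luminescence read.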 The conditions noted are these: Vero cells toxicity; at 19.5 µM (top of the series).
For the molecule `CCCCCCCCc1ccc(O)cc1`, the activity change, negative = toxicity was inactive: -21.8%.
